Assay results: the supplement of paper PMC3334620
Over roughly 33,000 sequences, “E-score (-0.5 to 0.5)” has its median near -8e-05; the highest 2% begin near 0.23. The list shows a part of the results.

target: T1, Nrg2 (UniProt P38082); test: PBM E-score (8-mer binding enrichment) (E-score (-0.5 to 0.5)); higher = stronger / more preferred TF binding; settings: protein concentration: 100 nM; construct: GST-full length
T1 sequence: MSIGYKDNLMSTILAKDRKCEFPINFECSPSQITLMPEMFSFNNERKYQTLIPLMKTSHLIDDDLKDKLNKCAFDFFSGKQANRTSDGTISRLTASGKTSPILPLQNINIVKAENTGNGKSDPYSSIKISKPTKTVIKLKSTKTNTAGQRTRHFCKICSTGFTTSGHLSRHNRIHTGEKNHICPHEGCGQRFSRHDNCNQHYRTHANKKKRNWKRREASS
Summary of the method: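 The E-score, a modified Wilcoxon-Mann-Whitney statistic, was computed by the Universal PBM Analysis Suite for every ungapped eight-base word pooled with its reverse complement. Scans behind it were normalised with masliner after bound GST-tagged yeast transcription factors were detected with fluorescent anti-GST. The proteins, at about 100-200 nM, had been applied to universal all-10-mer Agilent arrays made double-stranded by primer extension.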

| Sequence | PBM E-score |
| --- | --- |
| CCCCATTA | -0.0614 |
| GAATGTAC | 0.0946 |
| CCGGCCAG | 0.0298 |
| CAATGTAC | -0.186 |
| GGATCAAC | 0.0726 |
| GATGACTA | -0.0735 |
| ATACTAGC | 0.167 |
| AGCGGACT | -0.21 |
| AACGTTAA | -0.0543 |
| ATTAGGAA | 0.0529 |
| GATTTCCC | 0.0108 |
| CGGCTAAC | 0.0262 |
| CTTTAGAC | -0.0193 |
| GTCTATTA | 0.0378 |
| CACCCGTG | -0.0637 |
| CGTGGTTC | 0.0979 |
| AATTCCCC | 0.0175 |
| TCCTGTCA | -0.0951 |
| CTAGGAAG | -0.127 |
| AAGTTCGC | 0.0698 |
| ACTGCCCC | 0.0792 |
| GGAATGAA | 0.19 |
| AAGTACAT | 0.0528 |
| TCAGTAGA | -0.0922 |
| AGTTCAAA | 0.0881 |

| Sequence | PBM E-score |
| --- | --- |
| AACCCTAT | 0.195 |
| AGGCCTAG | -0.17 |
| CAGAATAA | 0.158 |
| CTGCAGAC | 0.00549 |
| ATAAATAG | 0.0238 |
| GCATTATA | 0.00208 |
| CCAGATAC | -0.0175 |
| GCTCAATA | 0.196 |
| CAATCTAC | -0.101 |
| GGTGCGAC | -0.0718 |
| CTGAGTAC | -0.0335 |
| GCTCGGCA | 0.0294 |
| CGTCTAAA | -0.142 |
| CCGGCATA | -0.188 |
| AACAATGC | 0.181 |
| TCTCCACA | -0.0518 |
| CACTGCGG | 0.0758 |
| CAGAGGCC | -0.207 |
| GTATGGAC | 0.0505 |
| GGATATCA | 0.0217 |
| GCGCACGA | 0.238 |
| AAGGACCC | 0.146 |
| AAGACCCT | 0.291 |
| ACGAGATA | -0.00105 |
| GAAAATCC | -0.035 |

Looked up one by one from the list above, 5 records:

| Sequence | PBM E-score |
| --- | --- |
| CCAGATAC | -0.0175 |
| CAATCTAC | -0.101 |
| AAGGACCC | 0.146 |
| ATAAATAG | 0.0238 |
| CAGAATAA | 0.158 |

Single values from the results shown.
In PBM E-score, CCAGATAC shows -0.0175
In PBM E-score, GCTCGGCA shows 0.0294

Further entries:

| Sequence | PBM E-score |
| --- | --- |
| TCTACTCA | -0.0218 |
| AACTCCCC | 0.0612 |
| CCTATTCA | -0.0401 |
| CACTTGGC | -0.0246 |
| CCGTAATC | 0.0439 |
| CCGTCGTA | -0.0709 |
| CCTTAGAG | -0.305 |
| CGAACTCG | 0.0595 |
| AGGCGATG | -0.138 |
| GAGAGGAC | -0.109 |
| CCTCAGCA | -0.0245 |
| ACTCGCAG | 0.0701 |
| TTATAAAA | 0.181 |
| GAACTGTC | 0.0447 |
| AAGCTCCC | -0.16 |
| GGTTATGA | -0.0752 |
| CAGGCTCA | -0.0296 |
| GGTGATCA | -0.0383 |
| AGCGCCGG | -0.164 |
| AACCAGTT | 0.178 |
| GGCTAAGA | -0.141 |
| TACTGAAA | 0.242 |
| AGACATTG | -0.0811 |
| ACGGAGTA | -0.158 |
| GCCCCGAC | -0.121 |

| Sequence | PBM E-score |
| --- | --- |
| CGTACACC | -0.0188 |
| ACGCGCGT | 0.17 |
| AAAGGGCT | -0.187 |
| AGCCTCGG | -0.172 |
| ACGTACAC | -0.0301 |
| AGATGTCA | 0.0439 |
| TATTATAA | 0.0806 |
| CCAAAACG | 0.0677 |
| AAGAGCCC | -0.17 |
| CCACAGGA | -0.082 |
| TACACCAA | 0.0384 |
| AATAGTCT | -0.0972 |
| AGGCCACT | -0.0372 |
| TCGCAGAA | -0.114 |
| ACAGTTTC | 0.259 |
| AACTGCCC | 0.0668 |
| CCCCAGCA | 0.122 |
| GCAGTTGA | 0.0825 |
| ATGTCGGC | 0.00767 |
| TACCAAGA | 0.105 |
| CACCCGAC | -0.0642 |
| CTGGCGTC | -0.104 |
| AAGCGCCA | -0.287 |
| CCTTTTCA | 0.0701 |
| ATTCCCTA | 0.108 |

Some of the entries above in a different format.
Sequence	PBM E-score
ACGCGCGT	0.17
ACGTACAC	-0.0301
AGATGTCA	0.0439
TCGCAGAA	-0.114
CTGGCGTC	-0.104

Next records:

| Sequence | PBM E-score |
| --- | --- |
| AGTCCAAA | 0.0189 |
| ATTGTTGC | -0.0433 |
| ACTTCAAT | 0.081 |
| AGCTACTC | -0.117 |
| CCACGACC | -0.101 |
| GCTACATA | -0.0565 |
| CGGTCATC | -0.0794 |
| AGCCACTA | -0.00796 |
| AGCTCGGC | 0.0788 |
| AAAATGGG | -0.0403 |
| CACATTAC | 0.111 |
| CACTATAG | -0.00981 |
| GAGAAGGA | -0.0474 |
| ATATCCTA | 0.102 |
| CTCTTCTA | -0.192 |
| ACGTGCGG | -0.00691 |
| CCCCACGG | -0.0969 |
| GGATTTAC | 0.0984 |
| CTCAGATC | 0.0131 |
| GAAGGTAA | 0.181 |
| GAATCTCA | -0.121 |
| ACGCCGTC | 0.0439 |
| ACTAATGC | 0.108 |
| AAGAACTG | -0.0148 |
| AGCCTGAT | -0.168 |

| Sequence | PBM E-score |
| --- | --- |
| ATCGTCCA | -0.25 |
| ATACGCAC | 0.195 |
| GGCGTCGA | 0.148 |
| CCGACCTC | -0.0353 |
| TGTGGGAA | -0.0662 |
| AATCATTG | -0.0463 |
| CTCAGACA | 0.0837 |
| AAGTAATG | 0.0727 |
| CGGACGGC | -0.281 |
| AATGCTAG | -0.188 |
| ATGTGGCA | -0.125 |
| AGTTCGCC | 0.119 |
| AAGCGATA | -0.0485 |
| CGGAGATC | -0.0999 |
| CAACTCTA | -0.0729 |
| ACCTTATG | 0.083 |
| TATGATGA | 0.131 |
| GTCAATAA | -0.0545 |
| CGCTACAA | 0.0962 |
| CGAAACGA | 0.0616 |
| AAGTTTTG | 0.0361 |
| GCGGGCGA | 0.176 |
| ATAGATGC | 0.0367 |
| AGATCTAC | 0.00881 |
| CAGTCGGA | -0.0641 |

| Sequence | PBM E-score |
| --- | --- |
| CTACTAAA | -0.0146 |
| CTTGGTTA | 0.168 |
| CTGAGTGC | -0.0978 |
| GACCCGTA | -0.0252 |
| CCGGGCCA | -0.18 |
| GTAAAGCA | 0.0559 |
| ATAAATAC | 0.283 |
| ACGCGTTC | 0.0995 |
| AAATAATC | 0.0163 |
| CGACTCCG | -0.183 |
| TGGGCAAA | -0.0262 |
| CTAAAATA | 0.0247 |
| AAAGCGCA | 0.012 |
| GAGCCATC | -0.0472 |
| CCCTCCCG | -0.164 |
| CCACGAAA | -0.00511 |
| TTACTCAA | 0.0539 |
| AACTCCCG | -0.0376 |
| ATGAAAGA | -0.0407 |
| CATGCCAA | 0.00072 |
| ACTCGGCC | 0.156 |
| CTTCCCCC | -0.439 |
